From publication PMC9203778
These are yes or no findings as the source states them, for the method shown. Binding seen in cells or lysates may run through a third protein. Some results given as binding are weak or reduced against the parent protein; the word gives no strength.

By UniProt entry, the sequences of proteins in these tests, tags left out.
UniProt P26599: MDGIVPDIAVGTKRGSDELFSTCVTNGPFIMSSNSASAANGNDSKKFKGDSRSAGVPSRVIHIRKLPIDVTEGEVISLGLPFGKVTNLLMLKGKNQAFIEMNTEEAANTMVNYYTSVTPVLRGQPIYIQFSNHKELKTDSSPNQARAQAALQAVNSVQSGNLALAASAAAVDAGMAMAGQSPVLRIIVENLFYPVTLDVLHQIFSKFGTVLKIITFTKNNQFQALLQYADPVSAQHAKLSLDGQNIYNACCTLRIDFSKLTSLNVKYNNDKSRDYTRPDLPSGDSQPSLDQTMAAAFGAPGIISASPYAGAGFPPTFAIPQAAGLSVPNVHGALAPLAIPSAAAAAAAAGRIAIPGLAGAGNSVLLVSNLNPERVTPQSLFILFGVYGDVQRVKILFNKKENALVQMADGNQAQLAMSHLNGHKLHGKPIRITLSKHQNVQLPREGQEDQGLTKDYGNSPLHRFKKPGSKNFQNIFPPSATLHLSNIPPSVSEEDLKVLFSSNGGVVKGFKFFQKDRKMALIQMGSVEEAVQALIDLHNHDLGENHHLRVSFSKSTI
UniProt Q07955: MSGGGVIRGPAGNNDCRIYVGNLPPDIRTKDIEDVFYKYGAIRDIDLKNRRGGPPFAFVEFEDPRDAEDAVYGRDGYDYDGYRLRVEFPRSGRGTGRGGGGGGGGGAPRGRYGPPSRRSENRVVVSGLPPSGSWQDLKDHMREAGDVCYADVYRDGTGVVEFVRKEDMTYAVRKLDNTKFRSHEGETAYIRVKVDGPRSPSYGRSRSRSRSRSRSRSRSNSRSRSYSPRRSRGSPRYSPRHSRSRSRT

Target: Polypyrimidine tract binding protein 1 (PTBP1) (human (endogenous in MDA-MB-468 and HCC1395)) (UniProt P26599)
Experiment: co-IP; anti-PTBP1 immunoprecipitation (Dynabeads protein G, overnight, 4 °C) within RIP experiments on sonicated nuclear lysates of UV-crosslinked MDA-MB-468 and HCC1395 cells; 5 washes in NT2 buffer (150 mM NaCl, 0.05% NP-40); DNase and RNaseA added on beads for protein analysis; 25% of eluates analysed by western blot; IgG as control

binding | Molecule
binds | SRSF1 (Serine And Arginine Rich Splicing Factor 1) (from UniProt Q07955 1-248)
binds | ID4 (inhibitor of DNA-binding 4) protein (protein, UniProt P47928 1-161) MKAVSPVRPSGRKAPSGCGGGELALRCLAEHGHSLGGSAAAAAAAAAARCKAAEAAADEPALCLQCDMNDCYSRLRRLVPTIPPNKKVSKVEILQHVIDYILDLQLALETHPALLRQPPPPAPPHHPAGTCPAAPPRTPLTALNTDPAGAVNKQGDSILCR
